## Library screen at single concentrations

Chains of the proteins cited; added tags and fusions are not shown. Residues count along the entry.
UniProt A4I591, 1-473: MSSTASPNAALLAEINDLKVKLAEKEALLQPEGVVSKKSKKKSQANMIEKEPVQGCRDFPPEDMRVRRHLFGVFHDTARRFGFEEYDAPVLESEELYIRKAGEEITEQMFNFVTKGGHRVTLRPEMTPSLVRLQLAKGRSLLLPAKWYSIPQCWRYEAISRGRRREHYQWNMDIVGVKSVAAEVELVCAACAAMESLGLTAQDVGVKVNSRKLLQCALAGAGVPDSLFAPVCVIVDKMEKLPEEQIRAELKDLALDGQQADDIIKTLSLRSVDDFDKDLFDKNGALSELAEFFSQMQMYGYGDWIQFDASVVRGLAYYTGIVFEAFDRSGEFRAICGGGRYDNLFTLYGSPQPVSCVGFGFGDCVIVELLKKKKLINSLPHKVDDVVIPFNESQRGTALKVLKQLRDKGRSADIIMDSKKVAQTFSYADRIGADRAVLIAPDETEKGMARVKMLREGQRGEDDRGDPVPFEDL
UniProt Q4DA54, 1-478: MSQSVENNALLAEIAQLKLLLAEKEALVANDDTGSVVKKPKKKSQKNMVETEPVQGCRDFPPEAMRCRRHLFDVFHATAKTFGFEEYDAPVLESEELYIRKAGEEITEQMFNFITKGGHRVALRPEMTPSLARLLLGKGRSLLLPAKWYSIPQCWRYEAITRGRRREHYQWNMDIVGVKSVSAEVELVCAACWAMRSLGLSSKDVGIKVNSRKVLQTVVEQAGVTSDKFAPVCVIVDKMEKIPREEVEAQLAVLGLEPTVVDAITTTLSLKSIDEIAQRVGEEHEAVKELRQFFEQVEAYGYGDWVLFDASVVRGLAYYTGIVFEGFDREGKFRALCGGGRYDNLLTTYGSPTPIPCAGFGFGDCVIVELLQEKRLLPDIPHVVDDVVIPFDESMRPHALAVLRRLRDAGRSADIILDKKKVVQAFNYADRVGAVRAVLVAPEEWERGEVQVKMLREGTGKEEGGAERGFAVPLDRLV
UniProt P9WPC5, whole entry: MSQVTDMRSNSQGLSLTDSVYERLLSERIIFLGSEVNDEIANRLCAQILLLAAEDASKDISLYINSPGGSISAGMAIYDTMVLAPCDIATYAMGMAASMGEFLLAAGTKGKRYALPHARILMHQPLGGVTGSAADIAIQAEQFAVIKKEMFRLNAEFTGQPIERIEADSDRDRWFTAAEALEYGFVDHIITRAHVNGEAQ
UniProt P9WPC3, whole entry partner: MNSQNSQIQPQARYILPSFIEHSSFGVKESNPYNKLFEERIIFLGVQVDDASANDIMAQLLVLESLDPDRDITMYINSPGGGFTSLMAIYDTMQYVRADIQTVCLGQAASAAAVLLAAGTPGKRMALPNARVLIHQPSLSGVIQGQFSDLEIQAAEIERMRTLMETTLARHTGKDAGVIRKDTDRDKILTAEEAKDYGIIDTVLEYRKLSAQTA

LiHisRS: 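Histidine-tRNA ligase, Leishmania infantum (UniProt A4I591). Enzyme assay of histidyl-tRNA synthetase; the read-out is not stated. Tested at 30 µM. Higher reads as stronger inhibition (inferred: compounds with an IC50 in retests scored well above the rest). The assay is labelled LdHisRS but filed under L. infantum. Size under these conditions: about 69,000 compounds, about 410 of them at 50% or above in at least one test.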
TcHisRS: 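Histidine-tRNA ligase, Trypanosoma cruzi CL Brener (UniProt Q4DA54). Enzyme assay of histidyl-tRNA synthetase; the read-out is not stated. Tested at 30 µM. Higher reads as stronger inhibition (inferred: compounds with an IC50 in retests scored well above the rest). Size under these conditions: about 69,000 compounds, about 31 of them at 50% or above in at least one test.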
ClpP1P2: 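ClpP1P2, Mycobacterium tuberculosis (UniProt P9WPC5 and UniProt P9WPC3). Protease assay of ClpP1P2, read by the AMC dye that it sets free. Tested at 50 µM. Higher reads as stronger inhibition, judged from the few compounds that gave an IC50. Most other retested compounds had strongly negative values. Of about 69,000 compounds tested this way, about 10 (0.015%) reached 50% or more in at least one test.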

Each number is a percent effect as filed. The record does not define 0% and 100%; most values in the screen are far below 50% and negative numbers occur (in some assays of this library far below -100). The compounds are a random part of those screened.

structure: O=C(NC1CC1)C1(Cc2cc(-c3ccc(F)cc3F)no2)CCOCC1
LiHisRS: 1.042
TcHisRS: 0
ClpP1P2: -32.42

structure: NC[C@H]1[C@H]2CN(Cc3ccccc3)C[C@@H]12
LiHisRS: 14.63
TcHisRS: 2.256
ClpP1P2: 2.976

structure: O=c1[nH]nc2nc(N3CCOCC3)ccn12
LiHisRS: 0
TcHisRS: 6.341
ClpP1P2: -17.37

structure: COC1CCN(C(=O)c2c(Cl)c3ccccc3n2C)CC1
LiHisRS: 24.27
TcHisRS: 1.245
ClpP1P2: -12.78

structure: O=C(CC1CCCC1)N1C[C@H](OCc2ccncc2)[C@H]2OCCC[C@H]21
LiHisRS: 15.38
TcHisRS: 8.537
ClpP1P2: 7.131

structure: CC(C)Nc1nc2c(cc1C(=O)NCC1CC1)CCN(S(C)(=O)=O)CC2
LiHisRS: 23.29
TcHisRS: 3.96
ClpP1P2: -169.4

structure: CCn1c(Cn2cncn2)nnc1C1CCN(C(=O)CCSC)CC1
LiHisRS: 20.75
TcHisRS: 1.695
ClpP1P2: -9.302

structure: COc1ccc(-c2cc(C(=O)NCCCn3ccnc3C)n(C)n2)cc1
LiHisRS: 5.674
TcHisRS: 10.9
ClpP1P2: -32.12

structure: CC(C)c1nc(CN2CCCC2CN2CCCC2)cs1 (stereo not shown)
LiHisRS: 4.959
TcHisRS: 10.92
ClpP1P2: 10.13

structure: CN1CCN(C(=O)Cc2ccc(F)cc2)Cc2cccnc21
LiHisRS: 26.03
TcHisRS: 2.97
ClpP1P2: 5.509

structure: Cc1ccccc1CN1CCN(C(=O)CCn2ccccc2=O)CC1
LiHisRS: 11.83
TcHisRS: 1.571
ClpP1P2: 8.81

structure: c1ccc(-c2cnc(CN3CCCC3Cn3cncn3)o2)cc1 (stereo not shown)
LiHisRS: 3.371
TcHisRS: 7.519
ClpP1P2: -19.79

structure: COc1ccc(S(=O)(=O)N2CCN(C)c3ncccc3C2)cc1
LiHisRS: 11.88
TcHisRS: 2.513
ClpP1P2: 11.19

structure: CN(C(=O)c1ccc(C2CCCO2)s1)C1CCS(=O)(=O)CC1 (stereo not shown)
LiHisRS: 8.197
TcHisRS: 3.488
ClpP1P2: -0.06667

structure: COc1cc(C2CC(=O)c3c(O)cc(O)cc3O2)ccc1O (stereo not shown)
LiHisRS: 22.22
TcHisRS: -4.95
ClpP1P2: -7.453

structure: CC(=O)NC1CCCN(C(=O)Nc2cccnc2-n2cccn2)C1 (stereo not shown)
LiHisRS: -8.621
TcHisRS: 5.65
ClpP1P2: -11

structure: c1cncc(C[C@H]2[C@H](N3CCOCC3)CCN2Cc2cccs2)c1
LiHisRS: 22.22
TcHisRS: 5.473
ClpP1P2: -6.715

structure: COc1ccc(S(=O)(=O)Cc2noc(CC(C)C)n2)cc1
LiHisRS: 2.74
TcHisRS: 1.587
ClpP1P2: -2.642

structure: Cn1cccc1C(=O)N1CCc2onc(Cn3cccn3)c2C1
LiHisRS: -5.455
TcHisRS: -2.479
ClpP1P2: 6.975

structure: O=C(c1ccc2c(c1)CCO2)N1CCN(c2ncccn2)CC1
LiHisRS: 3.39
TcHisRS: 4.39
ClpP1P2: -3.076

structure: Cc1cc(C)c(C(=O)N2CCN(c3ncccc3C#N)CC2)c(=O)[nH]1
LiHisRS: 20.43
TcHisRS: 2.976
ClpP1P2: -4.619

structure: O=C(Cc1csc(-c2ccco2)n1)N1CCSCC1
LiHisRS: 21.74
TcHisRS: 3.944
ClpP1P2: 3.719

structure: C=C(C)COc1cccc(CNCc2nc3ccccc3c(=O)[nH]2)c1
LiHisRS: 2.222
TcHisRS: 3.03
ClpP1P2: -5.653

structure: Cc1ncnc(NCCCN2CCCCC2CO)c1C (stereo not shown)
LiHisRS: 21.43
TcHisRS: 9.901
ClpP1P2: -0.5322

structure: Cn1c(C(=O)NC2CC2)nc2c1CCN(c1ncccn1)C2
LiHisRS: 1.724
TcHisRS: 5.063
ClpP1P2: -6.74

structure: NC(=O)c1cc(-c2cccc(C(=O)O)c2)cs1
LiHisRS: 15.79
TcHisRS: 0.5587
ClpP1P2: -3.496

structure: COc1cc(N2CC3(CCN(S(=O)(=O)C4CC4)C3)C2)ncn1
LiHisRS: 4.425
TcHisRS: 5.376
ClpP1P2: 3.636

structure: O=C(O)c1cc(/C=C/c2ccc3ccccc3c2)ncn1
LiHisRS: 6.25
TcHisRS: -26.67
ClpP1P2: -23.6

structure: CCc1ncc(C(=O)N2CCCC(c3nccn3CCOC)C2)cn1 (stereo not shown)
LiHisRS: 20.55
TcHisRS: 6.931
ClpP1P2: -6.253

structure: COCCCNC(=O)Cn1c(C)cc(=O)n2nc(-c3cccs3)nc12
LiHisRS: 10.53
TcHisRS: 2.439
ClpP1P2: -1.639

structure: CN(CCC#N)C(=O)Cc1csc(-c2ncccn2)n1
LiHisRS: 10.99
TcHisRS: 9.091
ClpP1P2: 7.767

structure: Cc1[nH]c2ccccc2c1-c1ccnc(N[C@H](CO)CC(C)C)n1
LiHisRS: 8.571
TcHisRS: 5.65
ClpP1P2: 4.107

structure: CCC(C)N(Cc1cccnc1)Cc1cc2c(cc1OC)OCO2 (stereo not shown)
LiHisRS: -1.493
TcHisRS: 2.128
ClpP1P2: -0.4987

structure: O=C(Nc1nncs1)c1ccc(-n2cnnn2)cc1
LiHisRS: 4.202
TcHisRS: 5.882
ClpP1P2: 9.695

structure: Cc1nnc(NC(=O)NCc2cc(F)cc(F)c2)s1
LiHisRS: 13.64
TcHisRS: 1.515
ClpP1P2: -0.7574

structure: CC(O)CN1CCC(CNCc2cccc(C(=O)N(C)C)c2)CC1 (stereo not shown)
LiHisRS: 6.14
TcHisRS: 6.105
ClpP1P2: -24.05

structure: CC(C)(C)c1nc(CC(=O)N2CCCC(n3cncn3)C2)cs1 (stereo not shown)
LiHisRS: 10.19
TcHisRS: 2.639
ClpP1P2: -5.185

structure: O=C(NCCOc1ccccc1)NCC(O)c1cccs1 (stereo not shown)
LiHisRS: 18.18
TcHisRS: 4.848
ClpP1P2: -6.016

Repeated from the top, 5 entries:

{"structure": "O=C(NC1CC1)C1(Cc2cc(-c3ccc(F)cc3F)no2)CCOCC1", "LiHisRS": 1.042, "TcHisRS": 0, "ClpP1P2": -32.42}
{"structure": "NC[C@H]1[C@H]2CN(Cc3ccccc3)C[C@@H]12", "LiHisRS": 14.63, "TcHisRS": 2.256, "ClpP1P2": 2.976}
{"structure": "O=c1[nH]nc2nc(N3CCOCC3)ccn12", "LiHisRS": 0, "TcHisRS": 6.341, "ClpP1P2": -17.37}
{"structure": "COC1CCN(C(=O)c2c(Cl)c3ccccc3n2C)CC1", "LiHisRS": 24.27, "TcHisRS": 1.245, "ClpP1P2": -12.78}
{"structure": "O=C(CC1CCCC1)N1C[C@H](OCc2ccncc2)[C@H]2OCCC[C@H]21", "LiHisRS": 15.38, "TcHisRS": 8.537, "ClpP1P2": 7.131}

From ChEMBL document CHEMBL3988442, “University of Dundee, Small-Polar-MMV Screening Library” (2021).